Our source for the binding values is PMC11392818.

By UniProt entry, the sequences of proteins in these tests, tags left out.
UniProt Q8N884: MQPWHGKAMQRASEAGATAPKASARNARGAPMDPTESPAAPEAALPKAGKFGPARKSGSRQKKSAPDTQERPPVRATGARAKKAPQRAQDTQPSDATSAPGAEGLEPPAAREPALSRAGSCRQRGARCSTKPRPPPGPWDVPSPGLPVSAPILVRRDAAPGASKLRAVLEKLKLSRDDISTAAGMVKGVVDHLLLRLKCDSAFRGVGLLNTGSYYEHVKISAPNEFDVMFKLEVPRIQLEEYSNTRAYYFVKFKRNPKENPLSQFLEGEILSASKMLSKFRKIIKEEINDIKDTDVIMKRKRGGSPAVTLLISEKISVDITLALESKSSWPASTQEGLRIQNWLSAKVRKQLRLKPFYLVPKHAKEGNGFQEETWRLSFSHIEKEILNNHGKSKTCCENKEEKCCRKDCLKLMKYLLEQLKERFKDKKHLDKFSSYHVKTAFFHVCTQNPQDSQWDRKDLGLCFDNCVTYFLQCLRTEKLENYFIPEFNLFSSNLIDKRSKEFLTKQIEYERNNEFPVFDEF
UniProt P51532: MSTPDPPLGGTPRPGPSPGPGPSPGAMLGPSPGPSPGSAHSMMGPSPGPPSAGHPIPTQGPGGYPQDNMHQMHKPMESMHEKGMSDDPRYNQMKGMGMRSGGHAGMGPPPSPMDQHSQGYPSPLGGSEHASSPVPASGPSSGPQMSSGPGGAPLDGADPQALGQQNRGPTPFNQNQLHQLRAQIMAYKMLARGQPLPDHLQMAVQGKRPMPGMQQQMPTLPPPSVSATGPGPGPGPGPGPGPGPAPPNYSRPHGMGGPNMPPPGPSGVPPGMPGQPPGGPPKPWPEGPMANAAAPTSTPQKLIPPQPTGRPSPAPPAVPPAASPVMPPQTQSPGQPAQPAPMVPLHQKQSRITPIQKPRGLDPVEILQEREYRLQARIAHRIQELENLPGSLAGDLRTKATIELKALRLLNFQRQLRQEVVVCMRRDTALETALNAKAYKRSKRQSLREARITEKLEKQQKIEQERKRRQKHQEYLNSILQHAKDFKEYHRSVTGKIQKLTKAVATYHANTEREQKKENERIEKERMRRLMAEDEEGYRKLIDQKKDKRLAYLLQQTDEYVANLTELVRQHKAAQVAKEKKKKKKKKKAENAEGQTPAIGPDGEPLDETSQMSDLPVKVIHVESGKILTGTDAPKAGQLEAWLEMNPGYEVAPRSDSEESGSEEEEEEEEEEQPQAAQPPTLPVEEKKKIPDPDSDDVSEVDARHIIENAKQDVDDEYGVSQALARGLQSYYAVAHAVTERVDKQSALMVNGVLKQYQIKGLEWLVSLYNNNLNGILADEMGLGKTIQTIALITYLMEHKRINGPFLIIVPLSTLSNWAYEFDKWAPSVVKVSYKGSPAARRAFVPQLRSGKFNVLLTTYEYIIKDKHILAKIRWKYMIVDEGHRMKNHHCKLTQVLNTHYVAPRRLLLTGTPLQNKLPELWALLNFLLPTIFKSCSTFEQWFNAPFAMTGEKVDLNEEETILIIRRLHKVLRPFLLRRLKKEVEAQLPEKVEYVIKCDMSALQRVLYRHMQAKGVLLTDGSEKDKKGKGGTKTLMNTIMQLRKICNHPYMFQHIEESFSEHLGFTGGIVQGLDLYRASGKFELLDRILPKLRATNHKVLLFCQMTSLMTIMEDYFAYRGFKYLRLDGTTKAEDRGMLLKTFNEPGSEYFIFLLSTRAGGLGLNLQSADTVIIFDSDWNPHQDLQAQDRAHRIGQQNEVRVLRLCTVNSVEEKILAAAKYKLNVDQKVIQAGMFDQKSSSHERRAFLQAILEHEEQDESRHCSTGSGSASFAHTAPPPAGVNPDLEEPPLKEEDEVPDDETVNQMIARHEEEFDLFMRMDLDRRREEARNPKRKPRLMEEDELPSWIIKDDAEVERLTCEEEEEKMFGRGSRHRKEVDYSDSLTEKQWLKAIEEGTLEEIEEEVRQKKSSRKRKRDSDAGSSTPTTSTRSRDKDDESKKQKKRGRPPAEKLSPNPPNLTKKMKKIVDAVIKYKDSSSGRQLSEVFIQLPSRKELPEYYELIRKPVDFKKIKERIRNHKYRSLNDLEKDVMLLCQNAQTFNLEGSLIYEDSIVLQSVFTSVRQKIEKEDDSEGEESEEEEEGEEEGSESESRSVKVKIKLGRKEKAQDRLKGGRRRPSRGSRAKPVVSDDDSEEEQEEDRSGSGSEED
UniProt Q8TAQ2: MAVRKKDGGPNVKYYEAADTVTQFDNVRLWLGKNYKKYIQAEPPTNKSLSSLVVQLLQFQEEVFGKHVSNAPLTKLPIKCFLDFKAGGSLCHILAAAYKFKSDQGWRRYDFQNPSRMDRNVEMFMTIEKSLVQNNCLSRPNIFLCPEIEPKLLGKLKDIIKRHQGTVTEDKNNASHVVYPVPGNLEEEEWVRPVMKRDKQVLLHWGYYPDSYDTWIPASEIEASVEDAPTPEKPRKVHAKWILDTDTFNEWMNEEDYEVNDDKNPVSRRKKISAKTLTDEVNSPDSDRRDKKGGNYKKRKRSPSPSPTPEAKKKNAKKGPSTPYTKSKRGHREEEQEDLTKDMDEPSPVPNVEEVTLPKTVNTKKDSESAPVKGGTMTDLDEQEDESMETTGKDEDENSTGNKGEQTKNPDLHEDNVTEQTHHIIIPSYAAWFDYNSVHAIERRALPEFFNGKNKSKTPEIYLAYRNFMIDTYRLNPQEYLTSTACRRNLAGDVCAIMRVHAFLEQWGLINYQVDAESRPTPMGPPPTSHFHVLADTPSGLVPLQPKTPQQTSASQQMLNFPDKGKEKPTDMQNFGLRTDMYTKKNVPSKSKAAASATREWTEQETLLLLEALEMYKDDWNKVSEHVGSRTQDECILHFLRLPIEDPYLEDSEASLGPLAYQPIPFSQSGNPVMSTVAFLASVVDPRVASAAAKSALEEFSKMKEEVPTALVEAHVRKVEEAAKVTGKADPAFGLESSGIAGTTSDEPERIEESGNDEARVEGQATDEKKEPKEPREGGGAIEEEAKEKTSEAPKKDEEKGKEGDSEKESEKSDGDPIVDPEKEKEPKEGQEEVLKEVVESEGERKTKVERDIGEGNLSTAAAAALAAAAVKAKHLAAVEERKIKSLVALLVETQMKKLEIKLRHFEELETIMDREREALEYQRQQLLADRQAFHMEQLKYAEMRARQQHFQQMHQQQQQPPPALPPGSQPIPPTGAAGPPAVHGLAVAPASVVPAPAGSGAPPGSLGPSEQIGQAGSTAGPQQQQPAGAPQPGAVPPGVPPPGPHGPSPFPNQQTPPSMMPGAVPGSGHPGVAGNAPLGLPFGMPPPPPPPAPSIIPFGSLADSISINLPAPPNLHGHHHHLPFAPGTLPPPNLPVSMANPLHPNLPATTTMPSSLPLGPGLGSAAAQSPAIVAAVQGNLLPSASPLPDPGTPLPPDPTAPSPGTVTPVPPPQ

No constants are given. Whether binding was seen depends on the method and setting. In cells and extracts the contact can be indirect. Some binding calls cover weakened binding; strength is not graded here.

The target in this assay is cGAS (cyclic GMP-AMP synthase) of HCT116 cells (human (endogenous in HCT116)) (UniProt Q8N884). Kind of assay: co-IP; immunoprecipitation and immunoblot from HCT116 whole-cell lysates; nuclease benzonase in all buffers to minimize post-lysis DNA binding by cGAS. For orientation: A western blot detects proteins with antibodies after separation by electrophoresis.

For the substance SMARCA4 (from UniProt P51532 1-1647), the binding entry is reported as “binds”.
For SMARCC2 (from UniProt Q8TAQ2 1-1214), the binding result is given as “binds”.
